Test results published in the supplement of paper PMC11006884.
Only a part is listed here, and it is no random draw.

Sequences of proteins named here, by UniProt entry; tags and fusion partners are left off. A change or cut given only in a name is not applied to a line headed by its entry.
UniProt Q9Y490: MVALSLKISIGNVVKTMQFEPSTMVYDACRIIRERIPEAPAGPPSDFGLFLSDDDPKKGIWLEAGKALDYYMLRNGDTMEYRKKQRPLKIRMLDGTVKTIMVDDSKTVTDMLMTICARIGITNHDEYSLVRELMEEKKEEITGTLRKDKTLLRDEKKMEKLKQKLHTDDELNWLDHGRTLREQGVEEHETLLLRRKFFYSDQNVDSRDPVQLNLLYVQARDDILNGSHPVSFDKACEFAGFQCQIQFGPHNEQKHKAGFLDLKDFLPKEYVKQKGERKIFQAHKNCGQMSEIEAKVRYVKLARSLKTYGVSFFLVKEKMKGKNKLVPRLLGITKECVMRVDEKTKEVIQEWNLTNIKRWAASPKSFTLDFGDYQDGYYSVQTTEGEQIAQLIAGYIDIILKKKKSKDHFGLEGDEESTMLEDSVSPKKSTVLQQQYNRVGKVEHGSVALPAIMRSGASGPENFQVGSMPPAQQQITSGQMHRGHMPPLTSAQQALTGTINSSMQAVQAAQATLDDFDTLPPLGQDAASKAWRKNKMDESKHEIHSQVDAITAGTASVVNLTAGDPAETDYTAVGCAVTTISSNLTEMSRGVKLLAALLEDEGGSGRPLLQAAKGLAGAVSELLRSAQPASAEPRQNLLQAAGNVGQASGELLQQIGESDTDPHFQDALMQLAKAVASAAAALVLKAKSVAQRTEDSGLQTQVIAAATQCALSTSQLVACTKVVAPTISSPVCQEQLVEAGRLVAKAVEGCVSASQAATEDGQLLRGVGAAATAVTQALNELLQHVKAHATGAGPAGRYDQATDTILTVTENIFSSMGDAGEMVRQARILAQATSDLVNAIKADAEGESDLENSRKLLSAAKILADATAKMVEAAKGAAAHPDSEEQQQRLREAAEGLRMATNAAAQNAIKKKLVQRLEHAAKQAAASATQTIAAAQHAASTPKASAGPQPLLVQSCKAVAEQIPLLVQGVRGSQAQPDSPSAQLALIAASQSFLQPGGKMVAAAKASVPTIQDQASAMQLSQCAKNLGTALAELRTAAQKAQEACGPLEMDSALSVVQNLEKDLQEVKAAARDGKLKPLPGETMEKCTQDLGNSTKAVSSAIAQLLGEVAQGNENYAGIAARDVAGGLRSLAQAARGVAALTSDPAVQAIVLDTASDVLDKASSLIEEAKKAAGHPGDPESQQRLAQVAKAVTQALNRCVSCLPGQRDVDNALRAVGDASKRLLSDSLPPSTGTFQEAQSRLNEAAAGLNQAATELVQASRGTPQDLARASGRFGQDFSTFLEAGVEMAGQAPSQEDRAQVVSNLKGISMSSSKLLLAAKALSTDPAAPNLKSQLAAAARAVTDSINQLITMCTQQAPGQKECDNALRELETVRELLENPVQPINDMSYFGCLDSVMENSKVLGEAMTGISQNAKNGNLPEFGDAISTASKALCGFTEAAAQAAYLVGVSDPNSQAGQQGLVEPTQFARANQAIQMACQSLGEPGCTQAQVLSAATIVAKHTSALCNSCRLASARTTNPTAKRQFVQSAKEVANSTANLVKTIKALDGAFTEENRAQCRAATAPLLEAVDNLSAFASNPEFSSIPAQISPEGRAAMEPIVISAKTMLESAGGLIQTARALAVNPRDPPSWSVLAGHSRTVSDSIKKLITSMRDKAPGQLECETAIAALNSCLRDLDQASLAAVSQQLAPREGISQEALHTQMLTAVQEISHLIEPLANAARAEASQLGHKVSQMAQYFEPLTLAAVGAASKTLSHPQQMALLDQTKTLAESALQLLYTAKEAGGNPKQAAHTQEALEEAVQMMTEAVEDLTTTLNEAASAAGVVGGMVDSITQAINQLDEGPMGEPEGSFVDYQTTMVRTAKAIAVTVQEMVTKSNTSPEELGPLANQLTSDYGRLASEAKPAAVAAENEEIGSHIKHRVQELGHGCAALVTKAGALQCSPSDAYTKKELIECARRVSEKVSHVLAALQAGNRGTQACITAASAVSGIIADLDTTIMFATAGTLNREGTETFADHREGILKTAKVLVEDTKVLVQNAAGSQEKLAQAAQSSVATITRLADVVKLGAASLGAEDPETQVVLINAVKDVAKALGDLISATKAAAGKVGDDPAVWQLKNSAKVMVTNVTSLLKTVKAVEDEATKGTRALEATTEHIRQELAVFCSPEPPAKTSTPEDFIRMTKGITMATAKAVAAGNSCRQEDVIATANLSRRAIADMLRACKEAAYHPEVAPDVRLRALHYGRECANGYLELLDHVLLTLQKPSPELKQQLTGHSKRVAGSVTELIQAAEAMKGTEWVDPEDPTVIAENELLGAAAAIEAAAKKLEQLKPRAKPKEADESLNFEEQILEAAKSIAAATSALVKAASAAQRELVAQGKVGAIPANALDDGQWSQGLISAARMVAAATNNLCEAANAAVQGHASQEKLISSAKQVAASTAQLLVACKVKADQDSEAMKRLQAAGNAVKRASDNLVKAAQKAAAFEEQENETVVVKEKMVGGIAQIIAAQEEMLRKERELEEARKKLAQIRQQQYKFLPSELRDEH
UniProt Q9Y4K1: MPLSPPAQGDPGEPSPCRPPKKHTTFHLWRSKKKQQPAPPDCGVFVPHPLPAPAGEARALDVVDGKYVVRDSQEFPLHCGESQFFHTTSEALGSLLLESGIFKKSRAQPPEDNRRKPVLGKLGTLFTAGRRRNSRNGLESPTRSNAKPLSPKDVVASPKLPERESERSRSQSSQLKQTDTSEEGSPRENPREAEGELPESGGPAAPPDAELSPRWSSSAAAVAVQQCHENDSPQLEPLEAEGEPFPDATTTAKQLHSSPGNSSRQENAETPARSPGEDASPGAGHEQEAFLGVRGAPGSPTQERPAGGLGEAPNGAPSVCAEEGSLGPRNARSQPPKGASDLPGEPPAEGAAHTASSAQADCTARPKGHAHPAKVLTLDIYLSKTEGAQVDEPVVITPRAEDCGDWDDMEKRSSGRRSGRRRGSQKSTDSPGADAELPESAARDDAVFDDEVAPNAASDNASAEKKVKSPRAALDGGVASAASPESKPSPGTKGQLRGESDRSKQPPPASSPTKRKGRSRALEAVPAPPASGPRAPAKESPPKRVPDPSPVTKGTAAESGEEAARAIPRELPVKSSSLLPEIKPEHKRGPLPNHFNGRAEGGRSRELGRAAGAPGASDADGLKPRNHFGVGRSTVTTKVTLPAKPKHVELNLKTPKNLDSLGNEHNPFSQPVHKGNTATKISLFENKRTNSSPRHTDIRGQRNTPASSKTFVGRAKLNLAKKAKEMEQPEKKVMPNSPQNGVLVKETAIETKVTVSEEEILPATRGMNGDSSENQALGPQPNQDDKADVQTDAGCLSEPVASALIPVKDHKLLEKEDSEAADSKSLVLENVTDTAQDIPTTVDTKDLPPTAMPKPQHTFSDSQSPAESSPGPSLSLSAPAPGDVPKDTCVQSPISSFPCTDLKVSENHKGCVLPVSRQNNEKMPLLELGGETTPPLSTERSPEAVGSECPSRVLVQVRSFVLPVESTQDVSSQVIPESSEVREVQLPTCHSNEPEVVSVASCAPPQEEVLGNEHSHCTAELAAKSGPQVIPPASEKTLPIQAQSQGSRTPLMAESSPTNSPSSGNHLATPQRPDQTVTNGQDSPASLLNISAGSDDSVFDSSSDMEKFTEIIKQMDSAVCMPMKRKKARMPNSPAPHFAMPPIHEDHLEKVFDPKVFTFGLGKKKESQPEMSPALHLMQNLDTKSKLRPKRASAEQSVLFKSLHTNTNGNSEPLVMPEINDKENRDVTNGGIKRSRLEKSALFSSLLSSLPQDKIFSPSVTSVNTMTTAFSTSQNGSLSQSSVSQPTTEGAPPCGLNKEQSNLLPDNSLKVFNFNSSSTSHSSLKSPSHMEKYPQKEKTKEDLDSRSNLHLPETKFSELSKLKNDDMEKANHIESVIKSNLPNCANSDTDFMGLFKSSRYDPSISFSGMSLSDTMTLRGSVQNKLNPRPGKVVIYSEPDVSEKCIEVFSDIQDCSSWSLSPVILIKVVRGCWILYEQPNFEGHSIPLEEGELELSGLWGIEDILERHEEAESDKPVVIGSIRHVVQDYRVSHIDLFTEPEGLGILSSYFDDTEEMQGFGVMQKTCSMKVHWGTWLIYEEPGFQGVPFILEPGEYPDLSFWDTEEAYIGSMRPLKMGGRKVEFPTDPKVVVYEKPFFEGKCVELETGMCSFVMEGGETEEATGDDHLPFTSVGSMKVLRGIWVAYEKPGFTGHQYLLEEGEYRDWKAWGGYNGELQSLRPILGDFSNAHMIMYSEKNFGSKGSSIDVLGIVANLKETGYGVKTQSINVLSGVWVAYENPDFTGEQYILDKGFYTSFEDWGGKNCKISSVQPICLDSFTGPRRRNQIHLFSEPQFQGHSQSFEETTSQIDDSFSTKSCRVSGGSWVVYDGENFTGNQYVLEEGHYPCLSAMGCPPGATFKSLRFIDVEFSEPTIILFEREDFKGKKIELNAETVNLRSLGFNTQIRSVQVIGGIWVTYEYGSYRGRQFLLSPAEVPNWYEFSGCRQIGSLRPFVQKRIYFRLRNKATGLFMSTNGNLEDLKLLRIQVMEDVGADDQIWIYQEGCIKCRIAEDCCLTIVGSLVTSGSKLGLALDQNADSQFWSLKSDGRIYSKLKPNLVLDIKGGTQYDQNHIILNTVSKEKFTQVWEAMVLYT
UniProt Q9Y6I9: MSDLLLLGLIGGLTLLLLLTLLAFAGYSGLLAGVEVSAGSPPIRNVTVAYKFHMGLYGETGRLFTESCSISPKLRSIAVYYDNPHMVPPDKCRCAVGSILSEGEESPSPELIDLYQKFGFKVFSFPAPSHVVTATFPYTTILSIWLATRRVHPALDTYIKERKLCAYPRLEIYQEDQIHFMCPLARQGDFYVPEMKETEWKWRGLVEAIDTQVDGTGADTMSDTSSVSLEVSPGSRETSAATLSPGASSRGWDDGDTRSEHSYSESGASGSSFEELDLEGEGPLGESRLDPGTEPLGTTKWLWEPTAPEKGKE
UniProt Q9Y6E0: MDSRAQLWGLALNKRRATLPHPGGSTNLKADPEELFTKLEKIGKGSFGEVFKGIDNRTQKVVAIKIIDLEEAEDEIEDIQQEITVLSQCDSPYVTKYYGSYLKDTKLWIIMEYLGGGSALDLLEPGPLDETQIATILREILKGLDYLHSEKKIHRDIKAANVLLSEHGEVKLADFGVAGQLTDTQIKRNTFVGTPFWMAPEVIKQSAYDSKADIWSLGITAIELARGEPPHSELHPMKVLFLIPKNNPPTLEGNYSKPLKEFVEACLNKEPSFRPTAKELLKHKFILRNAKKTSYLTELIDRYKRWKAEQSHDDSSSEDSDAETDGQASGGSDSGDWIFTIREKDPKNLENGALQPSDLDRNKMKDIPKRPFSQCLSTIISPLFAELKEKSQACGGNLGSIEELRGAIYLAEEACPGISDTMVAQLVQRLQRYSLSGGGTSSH
UniProt Q9Y6X9: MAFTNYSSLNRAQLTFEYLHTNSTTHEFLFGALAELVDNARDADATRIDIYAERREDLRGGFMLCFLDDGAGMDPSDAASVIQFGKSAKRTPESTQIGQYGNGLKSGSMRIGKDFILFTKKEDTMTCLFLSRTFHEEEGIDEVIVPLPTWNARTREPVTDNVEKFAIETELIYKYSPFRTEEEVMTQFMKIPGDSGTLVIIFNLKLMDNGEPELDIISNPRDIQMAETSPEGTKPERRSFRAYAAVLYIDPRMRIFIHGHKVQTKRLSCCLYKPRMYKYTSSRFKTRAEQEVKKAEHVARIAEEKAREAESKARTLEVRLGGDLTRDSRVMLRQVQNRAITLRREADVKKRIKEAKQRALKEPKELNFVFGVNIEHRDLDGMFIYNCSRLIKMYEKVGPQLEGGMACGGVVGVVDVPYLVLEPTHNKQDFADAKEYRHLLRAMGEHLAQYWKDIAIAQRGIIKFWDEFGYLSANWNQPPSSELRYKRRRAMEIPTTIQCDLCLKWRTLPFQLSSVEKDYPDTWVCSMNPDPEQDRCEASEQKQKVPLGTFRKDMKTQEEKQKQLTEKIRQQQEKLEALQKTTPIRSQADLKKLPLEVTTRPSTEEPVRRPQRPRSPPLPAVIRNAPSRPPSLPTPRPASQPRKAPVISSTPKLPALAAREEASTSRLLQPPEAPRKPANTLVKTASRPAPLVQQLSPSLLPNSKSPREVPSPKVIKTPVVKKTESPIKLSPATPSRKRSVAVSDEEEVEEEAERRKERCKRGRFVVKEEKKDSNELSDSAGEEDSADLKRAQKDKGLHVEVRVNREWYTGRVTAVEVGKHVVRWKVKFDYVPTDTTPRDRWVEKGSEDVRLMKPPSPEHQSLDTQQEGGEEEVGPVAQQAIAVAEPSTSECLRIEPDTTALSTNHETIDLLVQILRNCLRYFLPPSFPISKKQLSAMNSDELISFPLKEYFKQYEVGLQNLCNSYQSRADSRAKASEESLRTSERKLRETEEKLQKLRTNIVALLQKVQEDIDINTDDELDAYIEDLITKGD

compound: COC(=O)C#Cc1ccccc1 [methyl 3-phenylpropiolate]; test: log2 ratio of iodoacetamide-alkyne labeling of the cysteine site, DMSO over compound (competition); higher = stronger covalent engagement of the cysteine by the compound, active = 1 or more; settings: 500 µM; treatment time 1 h; system: HEK293T cell lysate
Summary of the method: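 For each cysteine, the log2 competition ratio is mean control-channel reporter intensity over mean compound-channel reporter intensity. HEK293T lysate (2 mg/mL) was exposed to vehicle or electrophile (500 µM, 1 h, ambient temperature), labelled with iodoacetamide alkyne (1 h), clicked to sCIP-TMT reagents, digested overnight with trypsin at 37 °C, streptavidin-enriched and analysed by Orbitrap Eclipse LC-MS/MS with FAIMS and FragPipe. Cysteines quantified in only one of three replicates, each with duplicate channels, were excluded.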

| Target | log2 ratio of iodoacetamide-alkyne labeling |
| --- | --- |
| TACC3 C459 (UniProt Q9Y6A5) | inactive: 0.32 |
| TLN1 C1353 (UniProt Q9Y490) | inactive: -0.00168 |
| TELO2 C644 (UniProt Q9Y4R8) | inactive: 0.306 |
| UniProt Q9Y678_C129 | inactive: 0.51 |
| MAP3K4 C596 (UniProt Q9Y6R4) | inactive: 0.793 |
| NUBP2 C54 (UniProt Q9Y5Y2) | inactive: 0.284 |
| TACC3 C20 (UniProt Q9Y6A5) | inactive: 0.333 |
| TSSC4 C99 (UniProt Q9Y5U2) | inactive: 0.0522 |
| FAM169A C138 (UniProt Q9Y6X4) | inactive: 0.201 |
| SRPRB C246 (UniProt Q9Y5M8) | inactive: 0.303 |
| UniProt Q9Y520_C177 | inactive: 0.692 |
| NME7 C228 (UniProt Q9Y5B8) | inactive: -0.145 |
| TLN1 C732 (UniProt Q9Y490) | inactive: 0.177 |
| USP16 C205 (UniProt Q9Y5T5) | inactive: -0.0573 |
| AIM1 C976 (UniProt Q9Y4K1) | inactive: 0.347 |
| CLIC4 C35 (UniProt Q9Y696) | inactive: 0.172 |

| Target | log2 ratio of iodoacetamide-alkyne labeling |
| --- | --- |
| SAMM50 C65 (UniProt Q9Y512) | inactive: -0.163 |
| TLN1 C1434 (UniProt Q9Y490) | inactive: 0.146 |
| TEX264 C165 (UniProt Q9Y6I9) | inactive: 0.476 |
| TAF6L C81 (UniProt Q9Y6J9) | inactive: 0.103 |
| USP15 C381 (UniProt Q9Y4E8) | inactive: 0.295 |
| TLN1 C1045 (UniProt Q9Y490) | inactive: 0.0256 |
| PPME1 C238 (UniProt Q9Y570) | inactive: 0.176 |
| TCAF1 C543 (UniProt Q9Y4C2) | inactive: 0.0837 |
| IKBKG C347 (UniProt Q9Y6K9) | inactive: 0.397 |
| UniProt Q9Y6E0_C375 | inactive: 0.0828 |
| RNF114 C176 (UniProt Q9Y508) | inactive: -0.246 |
| RAD54B C63 (UniProt Q9Y620) | inactive: 0.651 |
| LAS1L C699 (UniProt Q9Y4W2) | inactive: 0.838 |
| KCTD3 C606 (UniProt Q9Y597) | active: 1.08 |
| MORC2 C962 (UniProt Q9Y6X9) | inactive: 0.1 |
